Drawing on PubChem BioAssay AID248 (DTP/NCI, 2004), this text covers T/C for eight molecules.

In the test the test system is L1210 leukemia ip in BDF1 mice, survival T/C. Nature of the test: NCI In Vivo Anticancer Drug Screen. Data for tumor model L1210 Leukemia (intraperitoneal) in B6D2F1 (BDF1) mice. To be noted: T/C endpoint: mean survival time, higher T/C = longer survival.
The mark [1] stands for this setting: dose: 0.2 mg/kg/injection, schedule: Q01DX009 (ip), vehicle: other.
[2] abbreviates: dose: 0.4 mg/kg/injection, schedule: Q01DX009 (ip), vehicle: other.
Where [3] appears, read: dose: 0.8 mg/kg/injection, schedule: Q01DX009 (ip), vehicle: other.
Setting [4] is: dose: 1.6 mg/kg/injection, schedule: Q01DX009 (ip), vehicle: other.
Where [5] appears, read: dose: 0.05 mg/kg/injection, schedule: Q01DX009 (ip), vehicle: other.
Setting [6] is: dose: 0.1 mg/kg/injection, schedule: Q01DX009 (ip), vehicle: other.
Where [7] appears, read: dose: 1.2 mg/kg/injection, schedule: Q01DX009 (ip), vehicle: other.

The list does not hold the whole screen: it gathers some chemical classes. Other doses and runs of a compound may be missing. T/C is the treated group as % of the vehicle group. For survival time, the PubChem record calls one and a half times the control and up active, and a quarter to a half above the control has no call in these data; cut-offs in other NCI protocols can differ. Schedules are NCI's codes, taken here to give the interval after Q, in days (D) or hours (H), and the number of doses after X. Some T/C values are marked as having no survivor count here; that says nothing about deaths at the dose. Some entries were tested several times; their values stand side by side, smallest first.

Consider `CC1=C[C@H]2O[C@@H]3[C@H](O)[C@@H](O)[C@](C)([C@@]2(CO)CC1)[C@@]31CO1`, for which the T/C runs as follows: under setting [1], 113 % of control [survivor count not shown]; under setting [2], 131 % of control [survivor count not shown]; (dose: 0.5 mg/kg/injection, schedule: Q01DX009 (ip), vehicle: saline) 107 % of control [survivor count not shown]; under setting [3], 151 % of control [survivor count not shown]; (dose: 1.0 mg/kg/injection, schedule: Q01DX009 (ip), vehicle: saline) 107 % of control [survivor count not shown]; under setting [4], 133 % of control [survivor count not shown]. Moreover, the T/C reads like this: (dose: 2.0 mg/kg/injection, schedule: Q01DX009 (ip), vehicle: saline) 122 % of control [survivor count not shown]; (dose: 4.0 mg/kg/injection, schedule: Q01DX009 (ip), vehicle: saline) 127 % of control [survivor count not shown]; (dose: 8.0 mg/kg/injection, schedule: Q01DX009 (ip), vehicle: saline) 91 % of control [survivor count not shown].

In the case of `C/C=C/C(=O)OC[C@]12CCC(C)=C[C@H]1O[C@@H]1[C@H](O)[C@@H](O)[C@@]2(C)[C@@]12CO2`, the T/C under setting [1] was 127 % of control [survivor count not shown], the T/C under setting [2] was 134 % of control [survivor count not shown] and the T/C under setting [3] was 150 % of control [survivor count not shown].

On to `CC(=O)O[C@H]1C[C@@H]2OC3C=C(C)CCC3(C)[C@@]1(C)[C@@]21CO1` (some centres not stated), for which the T/C is, setting by setting: (dose: 30.0 mg/kg/injection, schedule: Q01DX015 (ip), vehicle: carboxymethylcellulose (CMC)) 102 % of control [survivor count not shown]; (dose: 60.0 mg/kg/injection, schedule: Q01DX015 (ip), vehicle: carboxymethylcellulose (CMC)) 100 % of control [survivor count not shown]; (dose: 120.0 mg/kg/injection, schedule: Q01DX015 (ip), vehicle: carboxymethylcellulose (CMC)) 97 % of control [survivor count not shown]; (dose: 240.0 mg/kg/injection, schedule: Q01DX015 (ip), vehicle: carboxymethylcellulose (CMC)) 100 % of control [survivor count not shown].

`CC(=O)OC[C@]12C[C@H](OC(=O)CC(C)C)C(C)=C[C@H]1OC1[C@H](O)[C@@H](OC(C)=O)[C@@]2(C)[C@@]12CO2`: the T/C (dose: 0.4 mg/kg/injection, schedule: Q01DX009 (ip), vehicle: Klucel (hydroxypropylcellulose) (HPC)) is 109 % of control [survivor count not shown]; the T/C under setting [2] was 138 % of control [survivor count not shown]; the T/C (dose: 0.62 mg/kg/injection, schedule: Q01DX009 (ip), vehicle: Klucel (hydroxypropylcellulose) (HPC)) is 112 [survivor count not shown], 115 [survivor count not shown], 145 % of control [survivor count not shown]; the T/C (dose: 0.62 mg/kg/injection, schedule: Q01DX009 (ip), vehicle: other) was 150 % of control [survivor count not shown]; the T/C (dose: 0.93 mg/kg/injection, schedule: Q01DX009 (ip), vehicle: Klucel (hydroxypropylcellulose) (HPC)) was 120 [survivor count not shown] and 121 % of control [survivor count not shown]; the T/C (dose: 0.93 mg/kg/injection, schedule: Q01DX009 (ip), vehicle: other) is 149 % of control [survivor count not shown]. Besides, the T/C runs as follows: (dose: 1.25 mg/kg/injection, schedule: Q01DX001 (ip), vehicle: Klucel (hydroxypropylcellulose) (HPC)) 104 % of control [survivor count not shown]; (dose: 1.25 mg/kg/injection, schedule: Q04DX003 (ip), vehicle: Klucel (hydroxypropylcellulose) (HPC)) 117 % of control [survivor count not shown]; (dose: 1.39 mg/kg/injection, schedule: Q01DX009 (ip), vehicle: Klucel (hydroxypropylcellulose) (HPC)) 125 % of control [survivor count not shown]; (dose: 2.5 mg/kg/injection, schedule: Q01DX001 (ip), vehicle: Klucel (hydroxypropylcellulose) (HPC)) 109 % of control [survivor count not shown]; (dose: 5.0 mg/kg/injection, schedule: Q01DX001 (ip), vehicle: Klucel (hydroxypropylcellulose) (HPC)) 111 % of control [survivor count not shown].

Consider `CC(=O)OC[C@]12CC(=O)C(C)=C[C@H]1O[C@@H]1C(=O)[C@@H](OC(C)=O)[C@@]2(C)[C@@]12CO2`, for which the T/C is 161 % of control [survivor count not shown] under setting [5]; 136 % of control [survivor count not shown] under setting [6]; 147 % of control [survivor count not shown] under setting [1]; 195 % of control [survivor count not shown] under setting [2]; 168 % of control [survivor count not shown] under setting [3]; 194 % of control [survivor count not shown] under setting [7]. Further, the T/C under setting [4] was 209 % of control [survivor count not shown].

For the molecule `CC1=C[C@H]2O[C@H]3[C@H](O)[C@@H](OC(=O)CCl)[C@](C)([C@@]2(COC(=O)CCl)CC1)[C@@]31CO1`, the T/C runs as follows: under setting [6], 104 % of control [survivor count not shown]; under setting [1], 111 % of control [survivor count not shown]; under setting [2], 126 % of control [survivor count not shown]; under setting [3], 129 % of control [survivor count not shown]; under setting [4], 131 % of control [survivor count not shown]; (dose: 3.2 mg/kg/injection, schedule: Q01DX009 (ip), vehicle: other) 149 % of control [survivor count not shown]. The T/C (dose: 6.4 mg/kg/injection, schedule: Q01DX009 (ip), vehicle: other) was 144 % of control [survivor count not shown].

Turning to `CC(=O)OC[C@]12CCC(C)=C[C@H]1O[C@H]1C(=O)[C@@H](OC(C)=O)[C@@]2(C)[C@]12CO2`, the T/C (dose: 0.01 mg/kg/injection, schedule: Q01DX009 (ip), vehicle: other) is 104 % of control [survivor count not shown]; the T/C (dose: 0.02 mg/kg/injection, schedule: Q01DX009 (ip), vehicle: other) is 114 % of control [survivor count not shown]; the T/C under setting [5] is 126 % of control [survivor count not shown]; the T/C under setting [6] was 138 % of control [survivor count not shown]; the T/C under setting [1] is 152 % of control [survivor count not shown]; the T/C under setting [2] is 164 % of control [survivor count not shown]. Moreover, the T/C by setting is: under setting [3], 176 % of control [survivor count not shown]; under setting [4], 149 % of control [survivor count not shown].

For the molecule `CC(=O)OC[C@]12CCC(C)=C[C@H]1O[C@@H]1[C@H](O)[C@@H](OC(=O)CCl)[C@@]2(C)[C@@]12CO2`, the T/C by setting is: under setting [3], 179 % of control [survivor count not shown]; under setting [7], 138 % of control [survivor count not shown]; under setting [4], 94 % of control [survivor count not shown].
